From the supplement of paper PMC10849652
The list shows a part of the results.

Sequences of proteins named here, by UniProt entry; tags and fusion partners are left off. A change or cut given only in a name is not applied to a line headed by its entry.
UniProt O43426, whole entry, looked up: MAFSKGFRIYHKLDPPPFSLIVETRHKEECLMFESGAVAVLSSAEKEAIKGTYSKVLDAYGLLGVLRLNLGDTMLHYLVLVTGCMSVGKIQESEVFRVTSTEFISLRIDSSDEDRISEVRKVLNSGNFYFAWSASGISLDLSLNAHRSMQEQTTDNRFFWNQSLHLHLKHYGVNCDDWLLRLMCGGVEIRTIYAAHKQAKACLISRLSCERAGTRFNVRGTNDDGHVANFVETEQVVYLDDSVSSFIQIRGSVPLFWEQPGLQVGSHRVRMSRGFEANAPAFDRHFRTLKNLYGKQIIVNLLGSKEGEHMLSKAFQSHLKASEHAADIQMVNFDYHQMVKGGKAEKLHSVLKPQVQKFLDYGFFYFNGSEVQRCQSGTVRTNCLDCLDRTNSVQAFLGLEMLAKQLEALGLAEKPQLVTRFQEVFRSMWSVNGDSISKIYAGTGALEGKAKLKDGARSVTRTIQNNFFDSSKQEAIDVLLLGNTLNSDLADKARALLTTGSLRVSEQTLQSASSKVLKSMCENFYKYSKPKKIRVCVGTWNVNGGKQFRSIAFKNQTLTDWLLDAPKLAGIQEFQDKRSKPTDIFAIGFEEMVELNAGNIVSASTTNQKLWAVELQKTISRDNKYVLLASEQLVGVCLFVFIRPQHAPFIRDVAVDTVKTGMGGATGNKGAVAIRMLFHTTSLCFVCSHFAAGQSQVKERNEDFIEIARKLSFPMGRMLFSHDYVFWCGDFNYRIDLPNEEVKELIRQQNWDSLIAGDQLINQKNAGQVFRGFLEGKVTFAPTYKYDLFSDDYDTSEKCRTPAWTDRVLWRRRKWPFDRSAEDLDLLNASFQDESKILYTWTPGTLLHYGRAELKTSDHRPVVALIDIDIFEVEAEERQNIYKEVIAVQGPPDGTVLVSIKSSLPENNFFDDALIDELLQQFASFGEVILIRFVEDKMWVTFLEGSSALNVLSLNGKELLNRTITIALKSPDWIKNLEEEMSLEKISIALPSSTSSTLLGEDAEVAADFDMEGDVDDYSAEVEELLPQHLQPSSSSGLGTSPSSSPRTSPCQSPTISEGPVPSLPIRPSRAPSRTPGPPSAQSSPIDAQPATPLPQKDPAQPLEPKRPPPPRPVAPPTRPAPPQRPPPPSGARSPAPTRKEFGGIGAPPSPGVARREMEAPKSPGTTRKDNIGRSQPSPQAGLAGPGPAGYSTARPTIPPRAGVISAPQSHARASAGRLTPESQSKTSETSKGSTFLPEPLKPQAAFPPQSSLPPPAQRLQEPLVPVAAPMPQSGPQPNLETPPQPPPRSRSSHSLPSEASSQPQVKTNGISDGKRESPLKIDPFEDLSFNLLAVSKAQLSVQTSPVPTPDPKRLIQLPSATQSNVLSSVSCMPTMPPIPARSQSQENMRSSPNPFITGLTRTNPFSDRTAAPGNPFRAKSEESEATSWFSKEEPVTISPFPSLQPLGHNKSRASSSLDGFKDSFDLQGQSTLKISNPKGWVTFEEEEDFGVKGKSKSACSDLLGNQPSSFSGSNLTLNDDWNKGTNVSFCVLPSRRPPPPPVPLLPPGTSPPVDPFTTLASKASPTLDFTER
UniProt O43760: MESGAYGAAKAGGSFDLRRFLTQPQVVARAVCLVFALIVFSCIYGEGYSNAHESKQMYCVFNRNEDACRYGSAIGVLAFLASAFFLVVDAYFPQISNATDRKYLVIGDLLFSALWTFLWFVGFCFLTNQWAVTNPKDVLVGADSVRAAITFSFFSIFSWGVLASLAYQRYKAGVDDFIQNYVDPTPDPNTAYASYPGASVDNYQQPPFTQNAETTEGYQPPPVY
UniProt Q8IYB8: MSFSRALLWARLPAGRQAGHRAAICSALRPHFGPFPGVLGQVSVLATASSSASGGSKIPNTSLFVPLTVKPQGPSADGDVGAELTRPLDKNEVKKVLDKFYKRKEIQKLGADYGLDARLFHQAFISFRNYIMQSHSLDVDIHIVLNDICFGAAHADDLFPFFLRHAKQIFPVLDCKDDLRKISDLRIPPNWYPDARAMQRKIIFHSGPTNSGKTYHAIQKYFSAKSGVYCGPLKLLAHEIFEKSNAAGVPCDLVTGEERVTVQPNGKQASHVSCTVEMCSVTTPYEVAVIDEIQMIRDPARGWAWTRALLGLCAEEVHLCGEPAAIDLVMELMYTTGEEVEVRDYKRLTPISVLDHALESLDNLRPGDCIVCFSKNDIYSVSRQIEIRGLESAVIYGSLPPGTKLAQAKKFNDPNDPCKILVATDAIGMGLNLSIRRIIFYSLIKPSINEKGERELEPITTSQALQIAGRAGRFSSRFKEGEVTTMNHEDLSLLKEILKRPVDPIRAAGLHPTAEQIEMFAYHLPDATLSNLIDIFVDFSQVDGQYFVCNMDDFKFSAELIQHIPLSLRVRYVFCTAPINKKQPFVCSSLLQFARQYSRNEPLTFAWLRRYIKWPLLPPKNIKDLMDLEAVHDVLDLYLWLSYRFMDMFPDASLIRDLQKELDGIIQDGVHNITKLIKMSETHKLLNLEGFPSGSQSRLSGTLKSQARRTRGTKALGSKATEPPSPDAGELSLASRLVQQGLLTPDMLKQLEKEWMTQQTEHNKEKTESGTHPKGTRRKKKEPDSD
UniProt Q13148, whole entry, looked up: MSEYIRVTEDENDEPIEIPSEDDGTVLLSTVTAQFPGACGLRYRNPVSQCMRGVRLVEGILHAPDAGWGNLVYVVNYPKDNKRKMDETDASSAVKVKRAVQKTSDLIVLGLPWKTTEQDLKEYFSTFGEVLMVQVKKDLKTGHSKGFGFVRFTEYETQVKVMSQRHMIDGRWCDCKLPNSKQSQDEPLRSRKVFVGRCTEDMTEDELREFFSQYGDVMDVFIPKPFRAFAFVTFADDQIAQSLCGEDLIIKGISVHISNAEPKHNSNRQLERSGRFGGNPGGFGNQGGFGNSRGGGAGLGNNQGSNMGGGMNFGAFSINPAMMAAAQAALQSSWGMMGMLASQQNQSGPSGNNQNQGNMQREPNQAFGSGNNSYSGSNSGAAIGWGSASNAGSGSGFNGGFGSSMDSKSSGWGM
UniProt O60506: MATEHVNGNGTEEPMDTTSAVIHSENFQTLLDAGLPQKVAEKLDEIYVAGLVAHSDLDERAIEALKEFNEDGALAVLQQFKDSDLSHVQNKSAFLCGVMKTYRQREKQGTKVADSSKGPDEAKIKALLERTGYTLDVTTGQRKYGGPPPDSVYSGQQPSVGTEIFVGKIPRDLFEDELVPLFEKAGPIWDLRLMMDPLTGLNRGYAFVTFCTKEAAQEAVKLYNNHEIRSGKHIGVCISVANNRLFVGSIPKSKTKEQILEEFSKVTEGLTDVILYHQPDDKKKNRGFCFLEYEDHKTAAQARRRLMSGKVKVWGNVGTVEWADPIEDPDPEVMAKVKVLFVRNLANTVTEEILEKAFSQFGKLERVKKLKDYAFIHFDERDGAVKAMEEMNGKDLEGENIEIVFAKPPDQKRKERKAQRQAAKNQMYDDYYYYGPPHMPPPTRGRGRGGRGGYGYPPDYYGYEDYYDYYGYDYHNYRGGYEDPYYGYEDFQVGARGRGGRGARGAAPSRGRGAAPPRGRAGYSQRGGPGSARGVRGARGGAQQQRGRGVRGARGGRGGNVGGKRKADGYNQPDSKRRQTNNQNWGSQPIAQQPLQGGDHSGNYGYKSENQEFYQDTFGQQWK
UniProt Q7Z422: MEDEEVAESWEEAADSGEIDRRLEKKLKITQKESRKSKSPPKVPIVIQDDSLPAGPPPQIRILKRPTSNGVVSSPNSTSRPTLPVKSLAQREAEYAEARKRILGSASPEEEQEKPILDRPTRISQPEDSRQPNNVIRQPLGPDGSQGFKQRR
UniProt A2RTX5: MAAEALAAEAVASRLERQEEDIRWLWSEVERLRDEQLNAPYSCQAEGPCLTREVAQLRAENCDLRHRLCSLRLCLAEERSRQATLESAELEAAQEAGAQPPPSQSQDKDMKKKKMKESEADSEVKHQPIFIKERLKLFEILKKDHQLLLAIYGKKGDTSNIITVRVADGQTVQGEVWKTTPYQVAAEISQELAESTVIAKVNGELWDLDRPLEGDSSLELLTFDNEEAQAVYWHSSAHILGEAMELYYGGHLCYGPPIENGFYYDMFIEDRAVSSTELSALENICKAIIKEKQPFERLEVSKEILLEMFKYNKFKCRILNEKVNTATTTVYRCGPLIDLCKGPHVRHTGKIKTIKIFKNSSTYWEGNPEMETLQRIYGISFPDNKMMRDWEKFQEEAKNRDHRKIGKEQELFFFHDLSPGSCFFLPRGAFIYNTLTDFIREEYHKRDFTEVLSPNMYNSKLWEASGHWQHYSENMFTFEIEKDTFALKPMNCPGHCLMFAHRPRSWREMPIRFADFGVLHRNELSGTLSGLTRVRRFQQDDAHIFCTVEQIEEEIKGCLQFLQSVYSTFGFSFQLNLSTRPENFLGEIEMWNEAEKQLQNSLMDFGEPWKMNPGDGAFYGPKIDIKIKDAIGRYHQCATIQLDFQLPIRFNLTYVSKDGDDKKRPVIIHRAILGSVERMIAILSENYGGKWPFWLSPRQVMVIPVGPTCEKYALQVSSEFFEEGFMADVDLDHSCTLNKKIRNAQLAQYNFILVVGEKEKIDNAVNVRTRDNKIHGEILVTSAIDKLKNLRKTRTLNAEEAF
UniProt Q86TM6, whole entry, looked up: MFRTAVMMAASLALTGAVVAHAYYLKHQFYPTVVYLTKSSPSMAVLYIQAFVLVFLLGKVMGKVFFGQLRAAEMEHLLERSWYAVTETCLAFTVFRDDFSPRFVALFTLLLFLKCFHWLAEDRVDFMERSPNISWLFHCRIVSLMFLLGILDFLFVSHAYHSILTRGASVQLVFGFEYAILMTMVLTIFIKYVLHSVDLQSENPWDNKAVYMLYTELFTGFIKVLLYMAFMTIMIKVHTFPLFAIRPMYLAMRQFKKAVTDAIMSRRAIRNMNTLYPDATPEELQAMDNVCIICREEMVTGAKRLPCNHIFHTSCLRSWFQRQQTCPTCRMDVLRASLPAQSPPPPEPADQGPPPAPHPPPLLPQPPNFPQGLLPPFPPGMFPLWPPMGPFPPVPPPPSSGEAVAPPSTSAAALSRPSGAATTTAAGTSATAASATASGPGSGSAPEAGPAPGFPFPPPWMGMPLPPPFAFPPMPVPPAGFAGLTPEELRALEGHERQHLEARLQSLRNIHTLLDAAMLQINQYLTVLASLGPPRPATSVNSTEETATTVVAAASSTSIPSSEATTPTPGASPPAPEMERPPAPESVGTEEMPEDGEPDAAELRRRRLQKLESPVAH
UniProt Q6ICL3: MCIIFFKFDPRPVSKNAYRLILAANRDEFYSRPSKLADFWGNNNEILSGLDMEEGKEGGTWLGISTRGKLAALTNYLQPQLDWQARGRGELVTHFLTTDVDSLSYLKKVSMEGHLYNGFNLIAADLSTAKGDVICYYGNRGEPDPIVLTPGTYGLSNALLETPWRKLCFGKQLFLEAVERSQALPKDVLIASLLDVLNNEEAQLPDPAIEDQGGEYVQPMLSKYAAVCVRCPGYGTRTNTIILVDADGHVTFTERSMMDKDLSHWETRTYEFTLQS
UniProt Q86Y82: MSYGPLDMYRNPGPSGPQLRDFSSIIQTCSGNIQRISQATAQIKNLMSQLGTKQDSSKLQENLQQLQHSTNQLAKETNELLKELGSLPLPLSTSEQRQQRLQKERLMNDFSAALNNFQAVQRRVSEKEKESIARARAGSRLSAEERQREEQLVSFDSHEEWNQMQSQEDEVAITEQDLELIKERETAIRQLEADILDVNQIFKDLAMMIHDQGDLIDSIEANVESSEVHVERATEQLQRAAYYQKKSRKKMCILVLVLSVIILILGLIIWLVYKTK
UniProt Q9ULQ0: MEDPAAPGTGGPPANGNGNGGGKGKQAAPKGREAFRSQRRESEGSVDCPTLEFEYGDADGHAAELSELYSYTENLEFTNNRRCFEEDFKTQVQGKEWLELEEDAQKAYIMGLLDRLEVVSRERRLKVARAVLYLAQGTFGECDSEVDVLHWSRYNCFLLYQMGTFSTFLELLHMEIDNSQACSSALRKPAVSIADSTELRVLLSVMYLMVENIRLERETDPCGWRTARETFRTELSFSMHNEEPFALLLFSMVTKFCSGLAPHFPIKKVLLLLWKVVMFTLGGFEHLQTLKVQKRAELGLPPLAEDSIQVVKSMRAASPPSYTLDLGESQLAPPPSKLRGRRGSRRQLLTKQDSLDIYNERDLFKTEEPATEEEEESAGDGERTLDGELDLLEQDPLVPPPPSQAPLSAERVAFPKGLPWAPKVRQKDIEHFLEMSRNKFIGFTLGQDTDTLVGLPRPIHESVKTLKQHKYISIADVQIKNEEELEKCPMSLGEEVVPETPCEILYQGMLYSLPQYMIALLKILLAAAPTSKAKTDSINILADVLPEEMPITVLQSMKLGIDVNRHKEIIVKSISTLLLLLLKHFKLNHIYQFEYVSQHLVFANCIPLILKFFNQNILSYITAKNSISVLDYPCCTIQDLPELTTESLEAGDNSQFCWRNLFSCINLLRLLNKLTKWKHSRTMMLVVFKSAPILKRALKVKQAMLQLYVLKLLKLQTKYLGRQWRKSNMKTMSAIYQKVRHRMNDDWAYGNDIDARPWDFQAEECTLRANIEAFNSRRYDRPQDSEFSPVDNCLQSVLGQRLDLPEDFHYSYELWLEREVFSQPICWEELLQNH

Compound: NC1(c2ccc(-c3nc4ccn5c(=O)[nH]nc5c4cc3-c3ccccc3)cc2)CCC1
Assay: log2 fold change, soluble protein after heating vs DMSO (PISA); higher = thermal stabilisation; K562 cells, 10 uM, 30 min; active = over 0.2 and 3.5 SD of the protein, either way, in both replicates (recomputed)
In short: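 K562 cells at 2×10^6 cells/mL were exposed to 10 μM compound for 30 min, then aliquots were heated for 3 min across 48°C-58°C, pooled, and extracted in PBS containing 0.5% NP-40 at 4°C. The supernatant after 21,000xg for 90 min was taken as soluble protein and measured by TMTpro 16plex LC-MS/MS with channel sums equalised. Thermal stability is reported relative to control samples, with values from duplicates. Fold changes are given on a log2 scale.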

log2 fold change, inactive:
TATDN3 isoform 3 (UniProt Q17R31) -0.026
SYNJ1 (UniProt O43426) 0.063
SYNJ2BP-COX16, A0A087WYV9 0.011
STX10 (UniProt O60499) 0.013
SYNGR2 (UniProt O43760) 0.032
SYNRG (UniProt Q9UMZ2) -0.054
SUCLG2 (UniProt Q96I99) -0.053
TAF2 (UniProt Q6P1X5) 0.131
STT3A (UniProt P46977) -0.045
SUCO (UniProt Q9UBS9) -0.077
STT3B (UniProt Q8TCJ2) -0.047
TAGLN2 isoform 2 (UniProt P37802) -0.001
STRN4 isoform 3 (UniProt Q9NRL3) -0.054
STRIP1 (UniProt Q5VSL9) -0.023
TAF10 (UniProt Q12962) 0.005
SUPV3L1 (UniProt Q8IYB8) -0.072
TACO1 (UniProt Q9BSH4) -0.145
SYAP1 (UniProt Q96A49) -0.121
TARDBP (UniProt Q13148) 0.146
STXBP1 (UniProt P61764) -0.162
TAPT1 (UniProt Q6NXT6) -0.057
TACC3 (UniProt Q9Y6A5) 0.034
STX5 (UniProt Q13190) -0.152
STMN1 (UniProt P16949) 0.042
TAF7 (UniProt Q15545) 0.004
SUGT1 (UniProt Q9Y2Z0) -0.093
TAB1 (UniProt Q15750) -0.153
SVBP (UniProt Q8N300) 0.142
SYNCRIP (UniProt O60506) 0.171
SZRD1 (UniProt Q7Z422) 0.042
TARSL2 (UniProt A2RTX5) -0.167
SYVN1 (UniProt Q86TM6) -0.033
TAF8 isoform 2 (UniProt Q7Z7C8) 0.016
STX16 isoform 2 (UniProt O14662) -0.02
TAF15 (UniProt Q92804) 0.192
TANGO2 isoform 4 (UniProt Q6ICL3) -0.115
STX12 (UniProt Q86Y82) -0.04
STRIP2 (UniProt Q9ULQ0) -0.043
STRADA (UniProt Q7RTN6) 0.027

Fetched one by one from the list above, 3 records:
log2 fold change, inactive:
SVBP (UniProt Q8N300) 0.142
TACO1 (UniProt Q9BSH4) -0.145
TAF10 (UniProt Q12962) 0.005
